Tested on: ApoE ko mice fed with high fat diet
Source text: 10 ApoE ko mice were fed with regular chow diet and used as negative control group. 50 ApoE ko mice were fed with high fat diet (35% kcal fat, 1% cholesterol) for 8 weeks, and then the plasma samples were collected for lipid profile measurement before the treatment. 50 ApoE ko mice were assigned into 5 groups based on the fasting overnight plasma TC and HDL level.
19 Mar. 2012 to 6 Apr. 2012: Group the mice based on the TC and HDL level and start the treatment with 3 doses of antibody APOA1 by i.p daily on the weekday (The first dose was administered by iv injection
13 Apr. 2012-14 May 2012: The treatment with antibody APOA1 was changed to i.p injection every two days (Monday, Wednesday, and Friday) per client's instruction.
Antibody products were administrated by intraperitoneal injection every two days (Monday, Wednesday, and Friday). and the positive compound was administered by p.o every day.
5.4. Body weight and blood glucose measurement: The body weight was weighed weekly during the period of treatment. The fasting overnight blood glucose was measured at the end of study by Roche glucometer.
5.5 24 h food intake measurement: 24 hours food intake for each cage was measured weekly
5.6. Plasma lipid profile measurement: About 300 ul of blood sample was collected from the orbital vein for each mouse and centrifuged at 7000 rpm for 5 min at 4° C. and the plasma lipid profile was measured by Roche Modular automatic biochemistry analyzer in DaAn Medical Laboratory
After RAAS antibody products treatment for 8 weeks, all mice were sacrificed. Measured body weight and collected blood sample for each mouse. Weighed liver weight and saved a tiny piece of liver into 4% paraformaldehyde (PFA) fixation solution for further analysis. […]
Scanning the glasses slides with the Aperio ScanScope system and analyze with the image proplus software to measure the area of atherosclerotic plaque session. The results were expressed as the percentage of the total aortic surface area covered by lesions. […]
The results were expressed as the Mean±SEM and statistically evaluated by student's t-test.

**Q.** What does the source list for `CC(C)c1c(C(=O)Nc2ccccc2)c(-c2ccccc2)c(-c2ccc(F)cc2)n1CC[C@@H](O)C[C@@H](O)CC(=O)O` [Atorvastatin, reference compound]?
**A.** plasma HDL (after 8 week treatment): significantly lower high density lipoprotein; plasma total cholesterol (TC) (after 8 week treatment, APOA1 low dose): significantly lower total cholesterol level; plasma TG level (after 8 weeks treatment): no effect
